The full ranking holds about 1,500 compounds; the median of “activity” is about 2, and the lowest 2% start at about -18. The list shows a part of the results. Activity calls are given as the source filed them.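 The calls were made as follows: active = inhibition of at least 40% at 10 µM; inconclusive = no clear call, values can overlap the other calls; inactive = the rest.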
Biological target: Sulfhydryl oxidase 1 (Homo sapiens) (UniProt O00391)
Experiment: QSOX1 enzyme inhibitors, confirmation, biochemical, ROS-Glo luminescence, single concentration (AID 1347421);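 also: 0% = DMSO wells with enzyme and 100% = wells lacking QSOX1 enzyme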
Conditions: recombinant hQSOX1, RNase A substrate, ROS-Glo H2O2 luminescence; at 10 µM

Amino acid sequences for entries named in this document (tags omitted). A change or cut given only in a name is not applied to a line headed by its entry.
UniProt O00391: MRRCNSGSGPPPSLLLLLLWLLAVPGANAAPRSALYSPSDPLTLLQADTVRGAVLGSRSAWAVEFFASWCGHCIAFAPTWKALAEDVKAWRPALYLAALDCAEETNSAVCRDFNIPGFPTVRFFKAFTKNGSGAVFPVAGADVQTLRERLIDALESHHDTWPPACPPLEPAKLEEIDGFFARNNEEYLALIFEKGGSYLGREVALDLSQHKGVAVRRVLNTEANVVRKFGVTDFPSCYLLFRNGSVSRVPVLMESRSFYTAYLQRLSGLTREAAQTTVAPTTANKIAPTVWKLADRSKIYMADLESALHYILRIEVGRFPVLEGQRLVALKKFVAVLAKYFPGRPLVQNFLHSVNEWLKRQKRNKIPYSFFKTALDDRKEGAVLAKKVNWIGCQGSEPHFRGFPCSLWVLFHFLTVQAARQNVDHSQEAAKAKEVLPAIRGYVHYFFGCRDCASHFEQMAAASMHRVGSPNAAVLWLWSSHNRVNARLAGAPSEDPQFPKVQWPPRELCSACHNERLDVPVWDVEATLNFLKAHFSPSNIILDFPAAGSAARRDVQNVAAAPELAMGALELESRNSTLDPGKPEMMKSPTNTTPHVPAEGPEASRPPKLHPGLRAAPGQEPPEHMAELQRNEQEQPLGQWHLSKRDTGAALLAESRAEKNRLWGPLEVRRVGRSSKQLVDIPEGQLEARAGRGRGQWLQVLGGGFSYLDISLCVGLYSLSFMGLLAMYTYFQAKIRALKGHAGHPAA

SMILES | activity
Cc1nonc1N1CCN(Cc2cn[nH]c2-c2cc3ccccc3o2)CC1 | 7.6%
CN1CCC(C2CCN(Cc3cn[nH]c3C3CCCCC3)CC2)C1 (configuration not stated) | 4.3%
CCN(CCn1cccn1)C(=O)C1CCC(=O)N(CCCc2ccccc2)C1 (configuration not stated) | inactive: -0.4%
Cc1cnc(C)c(N2C[C@H]3OC(=O)N(C4CCCC4)[C@H]3C2)n1 | 7.1%
Cc1nonc1CN(C)C(=O)c1cc(-c2cn[nH]c2)nc2cc(F)ccc12 | 6.1%
COc1cccc(-c2cnnc(NCCc3ccccc3F)n2)c1 | 7.9%
O=C(c1cc(F)ccc1F)C1CCCN(C(=O)C2=CCCC2)C1 (configuration not stated) | 7.4%
COc1ccc(F)cc1S(=O)(=O)Nc1cccc(C)n1 | inactive: -10.7%
CC(=O)NCC(=O)N1CCC2(CCCN(Cc3cccc(F)c3F)C2=O)C1 (configuration not stated) | 1.7%
COc1ccccc1CNc1nc2c([nH]1)c(=O)n(C)c(=O)n2C | 1%
COc1ccc(N2CCN(C(=O)c3ccc(-n4cnnc4)cc3Cl)CC2)cc1 | inactive: -13.7%
CN(C)c1ccccc1C(=O)N1CCOC(Cc2cccc(F)c2)C1 (configuration not stated) | 10%
CCCN1CCC(NC(=O)Nc2ccccc2Cl)CC1 | inactive: -0.6%
CCC(COC)NC(=O)CCc1nnc(CCCCc2ccccc2)o1 (configuration not stated) | 9.7%
C=C(C)CNCc1ccc(OCC(O)CN(C)C(C)C)c(OC)c1 (configuration not stated) | inactive: -0.7%
Cc1nc(-c2ccncc2)ncc1C(C)NC/C=C/c1ccco1 (configuration not stated) | 6.2%
CCOC(=O)C1CCCN(Cc2c(C(=O)N3CCCCCCC3)nc3sccn23)C1 (configuration not stated) | 4.4%
CSc1cccc(CN2CCC3(CCCN(CC4CC4)C3=O)C2)c1 (configuration not stated) | 3.3%
Cc1ccc(S(=O)(=O)N2CCC(C(=O)N3CCN(c4ccccn4)CC3)CC2)cc1 | inactive: -18.7%
COC(=O)[C@H](CC(C)C)NC(=O)CCc1nnc(COc2ccccc2)o1 | 5%
CN(CCO)Cc1cccc(OCC(O)CN2CCOCC2)c1 (configuration not stated) | inactive: -3.7%
O[C@@H]1CCN(Cc2nc(-c3ccc(C(F)(F)F)cc3)no2)C1 | inactive: -4.2%

SMILES | activity
O=C1N(Cc2ccc(F)cc2)CCCC1(O)CNC1CCCC1 (configuration not stated) | active: 42.6%
C=C(C)CN(CC)Cc1ccc(OCC(O)CN2CCN(CC)CC2)c(OC)c1 (configuration not stated) | 0.2%
COc1ccccc1Oc1ncccc1CNCC1CCOC1 (configuration not stated) | 2.6%
COCCn1c(CN(C)C2CCOCC2)cnc1S(=O)(=O)CC(C)(C)C | 4.3%
CCN(CC)CC(O)COc1cc(CNCCCn2ccnc2)ccc1OC (configuration not stated) | 9.4%
O=C(C1CCN(Cc2nc(-c3ccc(Cl)cc3)no2)CC1)N1CCCCC1 | inactive: -3%
COc1ccc(NC(C)=O)cc1NCC1(c2cccc(F)c2)CCOC1 (configuration not stated) | inactive: -0.7%
Cc1nonc1CC(=O)N1CCC(CCC(=O)N2CCN(c3ccccc3)CC2)CC1 | 11.2%
NC(=O)COc1ccc(S(=O)(=O)N2CCOCC2)cc1 | inactive: -13.3%
CC1=C(C(=O)N2CCCC(C(=O)c3cccc(C(F)(F)F)c3)C2)OCCO1 (configuration not stated) | 3.1%
COc1cc(CNc2nncc(-c3ccc(OC)cc3OC)n2)cc(OC)c1 | 9.6%
CCn1ccnc1CN1CCC(CCC(=O)Nc2ccccc2)CC1 | 3.9%
Cc1oc(-c2cccs2)nc1CN(C)C(C)c1cccs1 (configuration not stated) | 2.7%
CCN(CC)S(=O)(=O)c1csc(C(N)=O)c1 | 4.7%
C1CCC(C2CCN(Cc3nc(C4CC4)no3)C2)CC1 (configuration not stated) | 6.4%
CCS(=O)(=O)c1ncc(CN(C)CCc2cn[nH]c2)n1CCCc1ccccc1 | 0.5%
NCCCN(Cc1ccco1)C1CCCC1 | 4.8%
CC(=O)N1CCC(C(=O)Nc2ccc(Cl)cc2C(F)(F)F)CC1 | inactive: -11.6%
Cc1nn(C)cc1CN(C)Cc1ccc(OCC(O)CN2CCCCC2)cc1 (configuration not stated) | 0.9%
Cc1cccc(CN2CCN(Cc3nc(-c4ccc(C)s4)oc3C)CC2=O)c1 | 8.2%
CCC(C(=O)Nc1ccccc1C(=O)N1CCCC1)N(c1ccccc1)S(C)(=O)=O (configuration not stated) | 2.4%
Cc1cccc(CN2CCCC(O)(CNCc3nc(C)cs3)C2=O)c1 (configuration not stated) | 4.6%

SMILES | activity
CC(C)CN1CCC(C2CCN(C(=O)c3ccc(CN(C)C)o3)C2)CC1 (configuration not stated) | 0.8%
COc1ccc(S(=O)(=O)N2CC(=O)Nc3ccccc32)cc1C | inactive: -6%
COc1ccc(F)cc1C(=O)C1CCCN(C(=O)/C=C/c2cnn(C)c2)C1 (configuration not stated) | 0.1%
COc1ccc(CCN2CC(NC(=O)c3ccnn3C)CC2=O)cc1 (configuration not stated) | 4.3%
CCOc1cccc(CN2CCCC(N3CCCC3)C2)c1O (configuration not stated) | 1.7%
O=C(c1ccc(-c2ccccc2)cc1)C1CCCN(C(=O)CN2C(=O)CSC2=O)C1 (configuration not stated) | 5.7%
CCNC(=O)N1CCCC(C(=O)c2ccc3cc(OC)ccc3c2)C1 (configuration not stated) | 4.5%
CNCc1nc(C2=[C+]C=C(C)C=C2)no1 | inactive: -7.9%
c1ccc(Cc2nc(-c3ccncc3)n[nH]2)cc1 | 1.3%
O=c1cnnc(N2CCCCC2)[nH]1 | 3.8%
COCCS(=O)(=O)c1ncc(CN(C)CCc2cn[nH]c2)n1Cc1ccccc1 | 3.7%
Cn1cnnc1SCCNC(=O)C1CCC(=O)N(CCCc2ccccc2)C1 (configuration not stated) | 3.1%
COc1ccc(CN2CCCC(CCC(=O)N(C)C3CCN(C)CC3)C2)c2ccccc12 (configuration not stated) | inactive: -0.9%
O=C(Nc1ccc(Oc2ccccc2)nc1)C1CCCCN1C1CCOCC1 (configuration not stated) | inactive: -8.9%
COCCNC(=O)CCC1CCN(Cc2cccnc2)CC1 | 4.8%
CC(C)n1cc(CN2CCc3onc(-c4ccccc4F)c3C2)cn1 | 3.4%
C=CCn1c(SCC(=O)NC(C)(C)C)nc2c1c(=O)n(C)c(=O)n2C | inactive: -14%
O=C(NCC1CCCO1)C1CCN(C2CCN(C(=O)c3cccc(F)c3)CC2)CC1 (configuration not stated) | 8.1%
CCn1c(CN2CCCC2)nc2ccccc21 | inactive: -5.8%
COc1cc(C(=O)NCc2ccccc2C)cc(OC)c1OC | 6.2%
CCn1ncc(CN2CCN(CC3CCCCC3)C(CCO)C2)c1C (configuration not stated) | 0.7%
Cc1ccc(CNCC2(O)CCCN(CC(C)(C)C)C2=O)o1 (configuration not stated) | inactive: -1.8%

SMILES | activity
CCN1CCCC1CN(CC1CCN(CCOC)CC1)C(=O)CCc1c(C)noc1C (configuration not stated) | 2.5%
Cn1cc(CN2CCCC2c2ccc(C(=O)NCc3ccccn3)s2)cn1 (configuration not stated) | inactive: -1.7%
O=C(NCC(c1ccccn1)N1CCOCC1)c1cn(Cc2ccc(Cl)cc2)nn1 (configuration not stated) | 7.8%
COc1ccc(N2CCN(C(=O)c3cccc(-n4cnnc4)c3)CC2)cc1 | inactive: -22.3%
CCOc1ccc(Cl)cc1S(=O)(=O)NC(C)C | 3.5%
FC(F)(F)c1ccccc1CN1CCCC(N2CCCC2)C1 (configuration not stated) | 3.9%
O=C(c1ccc2nc(Cc3cccc(Cl)c3)oc2c1)N1CC[C@H](O)C1 | inactive: -6.2%
O=C(NCCCOc1cccnc1)C1CCC(=O)N(CCCN2CCOCC2)C1 (configuration not stated) | 4.2%
O=C(Cn1cncn1)N1CCC(C2CCN(Cc3ccc(Cl)cc3)C2)CC1 (configuration not stated) | 0.5%
COc1ccccc1CCC(=O)N1CCOC(Cc2cccc(F)c2)C1 (configuration not stated) | 3%
COc1ccccc1CCN1CCC(CN(C)C(=O)C2CCOC2)CC1 (configuration not stated) | 1.8%
CN1CCC(N2CCCC(NC(=O)c3ccc(F)cc3Cl)C2)CC1 (configuration not stated) | 4.3%
O=C(c1ccc(=O)[nH]c1)N1CCOC(CC2CCCCC2)C1 (configuration not stated) | 5.5%
O=C(CC1C(=O)NCCN1Cc1cccnc1)NCCCn1ccc2ccccc21 (configuration not stated) | 3.3%
O=C1CCCN1CCC(=O)N1CCCC(CCc2ccccc2)C1 (configuration not stated) | 7.5%
O=C(Nc1n[nH]c(C2CCCCC2)n1)N1CCOC2(CCCC2)C1 | 1%
CN(C)CCNC(=O)c1ccc(OC2CCN(C3CCSC3)CC2)c(Cl)c1 (configuration not stated) | 2.6%
CCc1noc(C)c1C(=O)NC1CC(=O)N(CC2CCCCC2)C1 (configuration not stated) | 5.4%
O=C(NC1CC(=O)N(Cc2ccc(F)cc2)C1)c1ccc[n+]([O-])c1 (configuration not stated) | 10.4%
Cc1noc(-c2ccc(N3C[C@H]4CC[C@H]3C4)nc2)n1 | inactive: -3.6%
CN(C)Cc1ccc(C(=O)N2CCCC(CCc3ccc(F)c(F)c3)C2)o1 (configuration not stated) | 5.2%
COCCNc1nnnc2c1sc1nc(N3CCOCC3)c3c(c12)CCCC3 | inactive: -11.5%

A few values from the results shown.
Under activity, `O=C(Nc1n[nH]c(C2CCCCC2)n1)N1CCOC2(CCCC2)C1` reads 1%
Under activity, `C=C(C)CNCc1ccc(OCC(O)CN(C)C(C)C)c(OC)c1` (configuration not stated) reads inactive: -0.7%
Under activity, `NC(=O)COc1ccc(S(=O)(=O)N2CCOCC2)cc1` reads inactive: -13.3%
Under activity, `O=C(Cn1cncn1)N1CCC(C2CCN(Cc3ccc(Cl)cc3)C2)CC1` (configuration not stated) reads 0.5%
Under activity, `FC(F)(F)c1ccccc1CN1CCCC(N2CCCC2)C1` (configuration not stated) reads 3.9%

Going on with the list.

SMILES | activity
CCS(=O)(=O)N1CCN(CC2(c3cccc(F)c3)CCOC2)CC1 (configuration not stated) | inactive: -2.4%
Cn1ccnc1CN1CCN(C(=O)c2cn(Cc3ccccc3C(F)(F)F)nn2)CC1 | 3.1%
CN(CCc1ccccn1)C(=O)CCC1CCCN(C(=O)Cn2nc3ccccc3n2)C1 (configuration not stated) | 7.7%
COc1ccc(OCC(O)CN2CCC(O)CC2)c(CNCC(C)(C)CO)c1 (configuration not stated) | 7.4%
COC(=O)C1CCN(CC(O)COc2cccc(CN3CCOCC3)c2)CC1 (configuration not stated) | inactive: -2.5%
O=C(c1cn(CCC2CCCCC2)nn1)N1CCCN(c2ncccn2)CC1 | 2.6%
COc1cc(CNCCN2CCOC2=O)ccc1OCC(O)CN1CCSCC1 (configuration not stated) | 5.7%
CN(Cc1cnccn1)C(=O)CC1C(=O)NCCN1Cc1cccc(Oc2ccccc2)c1 (configuration not stated) | inactive: -2.7%
C=CCC(O)(CC=C)CNC(=O)C1CCC(=O)N(CCc2ccccn2)C1 (configuration not stated) | inactive: -7.2%
COc1ccc(CN2CCNC(=O)C2CC(=O)NCc2ccc(C)o2)cc1C (configuration not stated) | inactive: -6.4%
CN1CCN(C(=O)Nc2ccc(Cl)cc2Cl)CC1 | inactive: -5.2%
CCCCOc1ccc(OCC(=O)NC)cc1 | 7.7%
O=C1N(Cc2ccccc2F)CCCC1(O)CN1CCC2(CC1)OCCO2 (configuration not stated) | 7.3%
Cc1nc(CCNC(=O)C2CCC(=O)N(CCc3cccc(F)c3)C2)sc1C (configuration not stated) | 7.2%
COC(=O)c1ccc(Cl)c(NC(=O)CN2CCN(C)CC2)c1 | 3.8%
O=C(CCc1cnccn1)NCc1cccnc1N1CCc2ccccc2C1 | inactive: -2.3%
CC(=O)N1CCN(Cc2nc(-c3cccc(Oc4ccccc4)c3)oc2C)CC1 | inactive: -5.5%
COC(=O)CCC(=O)N1CCC(CCC(=O)Nc2cccc(C)c2)CC1 | 0.2%
Cc1ccc(S(=O)(=O)Cc2ccc(C(=O)N3CCCCC3C)cc2)cc1 (configuration not stated) | inactive: -15.4%
